Chains of the proteins cited; added tags and fusions are not shown. Lines headed by an entry give the natural chain unless they say otherwise; changes in a name come on top.
UniProt Q01638: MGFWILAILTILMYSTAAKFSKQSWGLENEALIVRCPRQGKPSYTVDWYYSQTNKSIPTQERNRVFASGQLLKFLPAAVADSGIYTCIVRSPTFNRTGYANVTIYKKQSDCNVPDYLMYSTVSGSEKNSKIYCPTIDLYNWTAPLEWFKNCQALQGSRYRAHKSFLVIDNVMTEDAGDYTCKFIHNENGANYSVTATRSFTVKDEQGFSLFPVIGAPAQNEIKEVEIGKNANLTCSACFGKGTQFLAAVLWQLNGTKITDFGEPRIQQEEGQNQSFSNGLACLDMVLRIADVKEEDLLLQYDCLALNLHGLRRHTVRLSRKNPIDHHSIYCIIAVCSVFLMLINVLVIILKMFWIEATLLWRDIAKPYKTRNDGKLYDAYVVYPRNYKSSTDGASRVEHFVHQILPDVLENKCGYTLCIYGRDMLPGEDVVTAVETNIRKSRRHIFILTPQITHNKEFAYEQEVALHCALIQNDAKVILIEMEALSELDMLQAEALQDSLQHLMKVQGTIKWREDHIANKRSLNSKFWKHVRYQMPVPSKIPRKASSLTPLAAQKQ

Hit rate of the full screen: of about 78,000 compounds, about 1,800 (2.3%) were called active. The inconclusive results got no clear call from the source; some entries with a clear call stand among them for comparison. Rule as the data show it: active = inhibition above about 30%; inconclusive = mostly about 10% to 28%; inactive = weaker than that.
Each compound was assayed against Interleukin-1 receptor-like 1 (Homo sapiens) (UniProt Q01638) (assay: blocks human ST2 binding to IL-33, primary screen, biochemical, AlphaLISA (AID 1259354)). Conditions: AlphaLISA ST2-Fc/biotin-IL-33 interaction, 1 h; at 17 µM, stronger effect = higher value.
For `O=C(NC[C@H]1O[C@@H](CO)[C@@H](O)[C@H]1N1CCN(c2ccc(F)cc2)CC1)c1ccccc1`, the inhibition was inconclusive: 12%.
For `CN(Cc1nc(C2CC2)no1)C1CCN(C(=O)c2ccncc2)CC1`, the inhibition was inconclusive: 11%.
With `CCS(=O)(=O)c1c(S(=O)(=O)CC)c2ccc(C(N)=O)cn2c1C(=O)OC` the inhibition was inconclusive: 11%.
`CCOc1ccc(C(=O)Nc2cc3nn(-c4ccc(OC)cc4)nc3cc2C)cc1[N+](=O)[O-]` was tested, and the inhibition was inconclusive: 26%.
In the case of `COc1cc(OC)cc(-n2c(=O)c3sccc3n(CC(=O)c3ccc(F)cc3)c2=O)c1`, the inhibition is reported as inconclusive: 22%.
With `COc1cc2c(cc1OC)C(C(=O)NC1CCCCCC1)C1c3ccccc3CCN1C2=O` (stereo not drawn) the inhibition was “inactive”.
In the case of `CCc1noc(C)c1C(=O)N(CC)CC1CCN(CCc2ccccc2C)CC1`, the inhibition is reported as “inactive”.
With `O=C(NCC1(c2cccc(F)c2)CCOCC1)c1cn2c(n1)CNCC2` the inhibition was “inactive”.
For `COc1cc(C(=O)N2CCN(Cc3ccc4c(c3)OCO4)CC2)cc(OC)c1OC`, the inhibition was inconclusive: 12%.
With `Cc1[nH]nc(SCC(=O)N2CCN(C(c3ccccc3)c3ccccc3)CC2)c1[N+](=O)[O-]` the inhibition was inconclusive: 10%.
For `O=C(Nc1ccc(Cl)cc1)c1ccc2nc3ccccc3nc2c1`, the inhibition was inconclusive: 20%.
With `Cc1csc2ncc(C(=O)Nc3ccc(F)cc3)c(=O)n12` the inhibition was “inactive”.
With `O[C@@H]1C[C@@H](c2nc(Cc3ccccc3)no2)N(Cc2cccs2)C1` the inhibition was “inactive”.
In the case of `O=c1c(CN2CCN(c3ccccn3)CC2)coc2ccccc12`, the inhibition is reported as “inactive”.
With `N#Cc1nc(-c2ccc(Cl)cc2)oc1N1CCOCC1` the inhibition was inconclusive: 15%.
In the case of `Cn1c(=O)cc(SCC(=O)Nc2ccc(Cl)cn2)c2ccccc21`, the inhibition is reported as inconclusive: 17%.
In the case of `CN1CCN(C(=O)c2ccco2)CC1`, the inhibition is reported as “inactive”.
In the case of `CCC1CCCCN1S(=O)(=O)c1ccc2c(c1)CCN2C(=O)C1CC1` (stereo not drawn), the inhibition is reported as inconclusive: 12%.
`Cc1ccc(C(=O)Nc2ccc(F)cc2)o1` was tested, and the inhibition was inconclusive: 11%.
`COc1ccc(CNS(=O)(=O)c2cc(Br)cc3c2N(C(=O)C2CC2)CC3)cc1` was tested, and the inhibition was inconclusive: 10%.
In the case of `CCc1nc(C)c(C(=O)NC(C)C(=O)Nc2ccc(F)cc2C)o1` (stereo not drawn), the inhibition is reported as inconclusive: 19%.
For `CCOc1ccc(N=Cc2c(O)n(-c3ccccc3OC)c(=O)c3ccccc23)cc1`, the inhibition was inconclusive: 19%.
In the case of `CCc1ccc2occ(CC(=O)N3C[C@@H](N)C[C@H]3C(=O)NC(C)C)c2c1`, the inhibition is reported as inconclusive: 11%.
For `O=C(NC1CCCCC1)N1Cc2[nH]cnc2C[C@H]1c1nc(-c2ccncc2)no1`, the inhibition was inconclusive: 13%.
For `CC(C)(C)c1csc(NC(=O)c2ccc(S(=O)(=O)N3CCOCC3)cc2)n1`, the inhibition was “inactive”.
In the case of `Cc1cc(N2CC(C)CC(C)C2)nc2ccc(NC(=O)CCC(=O)NCCN(C)C)cc12` (stereo not drawn), the inhibition is reported as inconclusive: 15%.
`CCN(C(=O)c1cc2c(=O)n3cccc(C)c3nc2n1C)c1cccc(C)c1` was tested, and the inhibition was inconclusive: 11%.
With `CC(C)N(C(=O)Nc1ccccc1)C(C)C` the inhibition was inconclusive: 17%.
For `CN(C)c1ccc(CN2CCC3(CC2)C(=O)N(Cc2ccccc2)C(=O)N3CCc2ccccc2)cc1`, the inhibition was inconclusive: 17%.
In the case of `Cc1ccc(C(=O)Nc2cc(Cl)ccc2C)cc1`, the inhibition is reported as “inactive”.
With `COc1ccc(Nc2nc(Nc3ccc(OC)cc3)nc(N3CCNCC3)n2)cc1` the inhibition was active: 31%.
In the case of `Cc1ccc(N2NC(=O)/C(=C/c3cccs3)C2=O)cc1Cl`, the inhibition is reported as inconclusive: 16%.
In the case of `CC(=NCCCN1CCOCC1)c1c(-c2ccccc2)[nH]n(-c2nc3ccccc3s2)c1=O`, the inhibition is reported as “inactive”.
For `CCCCNc1ncnc2c1cnn2-c1cccc(C)c1`, the inhibition was “inactive”.
With `Cc1cccc(S(=O)(=O)N2CCSC2c2ccc([N+](=O)[O-])cc2)c1` (stereo not drawn) the inhibition was inconclusive: 19%.
For `COc1ccc(Cn2c(Oc3ccc(C)cc3)nc3c2c(=O)n(C)c(=O)n3C)cc1`, the inhibition was inconclusive: 25%.
`CN(Cc1ccccc1-n1cnnc1)C1CCCCC1` was tested, and the inhibition was inconclusive: 15%.
In the case of `Cc1cc(C(=O)N2CCc3onc(-c4ccccc4)c3C2)nc(C)n1`, the inhibition is reported as “inactive”.
With `O=C(c1nn2c(c1Cl)NC(c1ccco1)CC2C(F)(F)F)N1CCOCC1` (stereo not drawn) the inhibition was “inactive”.
In the case of `Nc1cc(Cl)c(N)cc1Cl`, the inhibition is reported as inconclusive: 22%.
`Cc1cccc(CN2CCC(c3nn(C)c(=O)n3Cc3ccccc3)CC2)n1` was tested, and the inhibition was “inactive”.
For `C=C1CCC2C(C)(COC3OC(COC(=O)CC(=O)O)C(O)C(O)C3O)CCCC2(C)C1CCC1=CCOC1=O` (stereo not drawn), the inhibition was inconclusive: 17%.
With `C[C@H]1[C@@H]2[C@@H](O)C([C@H](C)C(=O)NCc3ccc(F)cc3)CC[C@@]2(C)CC[C@@H]1NC(=O)COc1ccccc1` (stereo partly drawn) the inhibition was inconclusive: 18%.
In the case of `O=C(NC1CCCC1)c1ccc(CS(=O)(=O)c2c(Cl)cccc2Cl)o1`, the inhibition is reported as inconclusive: 11%.
For `Cc1c(Cc2ccc(Cl)cc2)c(NCCCn2ccnc2)n2c(nc3ccccc32)c1C#N`, the inhibition was inconclusive: 15%.
With `O=C1c2ccc(Br)cc2C(=O)N1Cc1ccccc1` the inhibition was inconclusive: 25%.
`O=C(Cn1cncn1)N1CCc2c(cc(-c3ccccc3F)c(=O)n2Cc2ccncc2)C1` was tested, and the inhibition was inconclusive: 15%.
`NC(=O)[C@H](Cc1cccs1)NC(=O)C1=C[C@@H](NC(=O)c2cnccn2)[C@@H](O)[C@H](O)C1` was tested, and the inhibition was inconclusive: 29%.
`O=C(c1ccc([N+](=O)[O-])cc1)N1CCN(c2cccc(Cl)c2)CC1` was tested, and the inhibition was inconclusive: 19%.
In the case of `Cc1cc(C(=O)N2CCOC(C(F)(F)F)C2)cc2sc(N)nc12` (stereo not drawn), the inhibition is reported as inconclusive: 10%.
For `CC(=O)N1N=C(c2cccc([N+](=O)[O-])c2)OC1c1ccc(Br)cc1` (stereo not drawn), the inhibition was inconclusive: 10%.
`Cn1nc(C(=O)N2CCCC3(CC2)CNC(=O)O3)c2c1CCCC2` (stereo not drawn) was tested, and the inhibition was inconclusive: 15%.
With `CCn1c(SCC(=O)Nc2ccc(OC)cc2)nnc1-c1ccncc1` the inhibition was inconclusive: 12%.
`COc1ccc(/C=C(\C#N)c2ccc([N+](=O)[O-])cc2)c(OC)c1` was tested, and the inhibition was active: 48%.
With `c1ccc2c(Cc3nnc([C@H]4CCN(C5CCOCC5)C4)o3)c[nH]c2c1` the inhibition was inconclusive: 10%.
`CCOC(=O)C1C(=O)C=C(c2ccco2)CC1c1ccc(F)cc1` (stereo not drawn) was tested, and the inhibition was inconclusive: 11%.
In the case of `O=C(c1cc2sc3ccccc3c2s1)N1CCOCC1`, the inhibition is reported as inconclusive: 13%.
In the case of `Cc1oc(-c2ccc(Cl)cc2)nc1CSCC(=O)NC(C)C`, the inhibition is reported as “inactive”.
For `Cc1nn(-c2ccccc2)c(C)c1Cc1n[nH]c(Cc2ccccc2)n1`, the inhibition was “inactive”.
In the case of `Cc1cc(C)c(C#N)c(SCc2nc3ccccc3[nH]2)n1`, the inhibition is reported as inconclusive: 17%.
`CC1=NN(c2ccccc2)C(=O)C1C(c1ccccc1Cl)C(C#N)C#N` (stereo not drawn) was tested, and the inhibition was “inactive”.
For `CC(C)Nc1nc(NC(C)C)nc(OCCOC(=O)c2ccccc2)n1`, the inhibition was inconclusive: 11%.
`CCCN(CCC)S(=O)(=O)c1ccc([N+](=O)[O-])cc1` was tested, and the inhibition was inconclusive: 16%.
`CNCCOc1ccc(C)cc1-c1ccc2c(c1)OCO2` was tested, and the inhibition was inconclusive: 10%.
For `C=CCn1c(C(C)NC(=O)c2cccc(C)c2)nc2ccccc21` (stereo not drawn), the inhibition was inconclusive: 16%.
`COC(=O)c1ccccc1NS(=O)(=O)c1ccc2c(c1)CCC(=O)N2` was tested, and the inhibition was “inactive”.
In the case of `O=C(Nc1ccc(S(=O)(=O)Nc2nccs2)cc1)C1(c2ccccc2)CCOCC1`, the inhibition is reported as “inactive”.
For `COc1ccc(/C=C2\SC(=O)N(CC(=O)Nc3cccnc3)C2=O)cc1OC`, the inhibition was inconclusive: 22%.
`CCOc1ccc2sc(C=NCCc3ccc(OC)cc3)c(O)c2c1` was tested, and the inhibition was inconclusive: 21%.
With `CCOc1ccc2c(c1)CN(c1cc(C)cc(C)c1)CO2` the inhibition was “inactive”.
For `CCOc1ccc(CCNc2nc(CC(C)=O)ns2)cc1OCC`, the inhibition was “inactive”.
For `CCCCNC(=O)c1cc(Sc2nnc(C)s2)nc2ccccc12`, the inhibition was inconclusive: 15%.
`CCc1ccc(-c2csc(N3C(=O)C4[C@@H]5CC[C@@H](C5=C(C)C)[C@@H]4C3=O)n2)cc1` (stereo partly drawn) was tested, and the inhibition was “inactive”.
For `CC1CCc2cc(F)ccc2N1C(=O)c1cnc2sccn2c1=O` (stereo not drawn), the inhibition was inconclusive: 13%.
`COC(=O)CCC(=O)Nc1sc2c(c1C(=O)OC)CCCC2` was tested, and the inhibition was inconclusive: 10%.
With `COc1ccc(C2NC(C(=O)O)CS2)cc1` (stereo not drawn) the inhibition was inconclusive: 14%.
With `CCN(CC)/C(=N/O)c1cccc([N+](=O)[O-])c1` the inhibition was inconclusive: 16%.
`Cc1c(OC(=O)N2CCOCC2)ccc2c(=O)c(-c3nc4ccccc4s3)coc12` was tested, and the inhibition was “inactive”.
`CC(O)CNc1nc2c(c(=O)n(Cc3ccc(Cl)cc3)c(=O)n2C)n1C` (stereo not drawn) was tested, and the inhibition was inconclusive: 13%.
With `COc1ccc2c(Cl)c(C(=O)O)sc2c1` the inhibition was “inactive”.
With `O=C1C2CCCN2C(c2cccc(Br)c2)N1c1nccs1` (stereo not drawn) the inhibition was “inactive”.
For `Cc1cccc(-c2nsc(SCC(=O)N3CCCC3)n2)c1`, the inhibition was inconclusive: 18%.
With `CC1=NN(c2cccc(Cl)c2)C(=O)/C1=C\C=C\c1cccc([N+](=O)[O-])c1` the inhibition was inconclusive: 10%.
In the case of `COc1cc(/C=C2/NC(=O)NC2=O)cc(Br)c1OC(C)C`, the inhibition is reported as inconclusive: 15%.
In the case of `CCOC(=O)C1C(=O)C=C(c2ccco2)CC1c1ccc(C)cc1` (stereo not drawn), the inhibition is reported as inconclusive: 17%.
`CCOc1ccc(-n2c(C)c3c(OCC)cccc(=O)c3c2C)cc1` was tested, and the inhibition was inconclusive: 20%.
`O=C(CN1C(=O)C2CCCN2C1=O)Nc1ccc([N+](=O)[O-])cc1` (stereo not drawn) was tested, and the inhibition was inconclusive: 17%.
With `COc1ccc(-n2c(SCC(=O)N3CCOCC3)nc3c([nH]c4ccccc43)c2=O)cc1` the inhibition was inconclusive: 17%.
With `O=C(c1cc2ccccc2o1)N1CCN=C1SCc1cccnc1` the inhibition was inconclusive: 10%.
For `COc1ccc(Cl)cc1NS(=O)(=O)c1cccc([N+](=O)[O-])c1`, the inhibition was inconclusive: 11%.
`COC(=O)c1ccc(C2C(C#N)=C(N)Oc3n[nH]c(-c4ccccc4)c32)cc1` (stereo not drawn) was tested, and the inhibition was “inactive”.
`CS(=O)(=O)N1Cc2ccccc2CC1C(=O)NC1CCCCCCC1` (stereo not drawn) was tested, and the inhibition was “inactive”.
In the case of `O=C(NC1CC1)c1cccc([N+](=O)[O-])c1`, the inhibition is reported as “inactive”.

— PubChem BioAssay AID1259354 (Paczesny and Yang Labs, IUPUI and University of Michigan, 2018)
